The results in this text go back to US20220305003A1, “METHODS OF TREATING CANCER WITH AN INHIBITOR OF ZNF827” (CHILDREN'S MEDICAL RESEARCH INSTITUTE, priority 2019, published 2022).

Common to all, as to experiment: EMSA
(In general: A gel shift assay detects complexes by their altered migration in electrophoresis.)

In data set [1] the target is T1, ZNF827 ZnF1-3 deleted (Homo sapiens) (UniProt Q17R98).
T1 sequence: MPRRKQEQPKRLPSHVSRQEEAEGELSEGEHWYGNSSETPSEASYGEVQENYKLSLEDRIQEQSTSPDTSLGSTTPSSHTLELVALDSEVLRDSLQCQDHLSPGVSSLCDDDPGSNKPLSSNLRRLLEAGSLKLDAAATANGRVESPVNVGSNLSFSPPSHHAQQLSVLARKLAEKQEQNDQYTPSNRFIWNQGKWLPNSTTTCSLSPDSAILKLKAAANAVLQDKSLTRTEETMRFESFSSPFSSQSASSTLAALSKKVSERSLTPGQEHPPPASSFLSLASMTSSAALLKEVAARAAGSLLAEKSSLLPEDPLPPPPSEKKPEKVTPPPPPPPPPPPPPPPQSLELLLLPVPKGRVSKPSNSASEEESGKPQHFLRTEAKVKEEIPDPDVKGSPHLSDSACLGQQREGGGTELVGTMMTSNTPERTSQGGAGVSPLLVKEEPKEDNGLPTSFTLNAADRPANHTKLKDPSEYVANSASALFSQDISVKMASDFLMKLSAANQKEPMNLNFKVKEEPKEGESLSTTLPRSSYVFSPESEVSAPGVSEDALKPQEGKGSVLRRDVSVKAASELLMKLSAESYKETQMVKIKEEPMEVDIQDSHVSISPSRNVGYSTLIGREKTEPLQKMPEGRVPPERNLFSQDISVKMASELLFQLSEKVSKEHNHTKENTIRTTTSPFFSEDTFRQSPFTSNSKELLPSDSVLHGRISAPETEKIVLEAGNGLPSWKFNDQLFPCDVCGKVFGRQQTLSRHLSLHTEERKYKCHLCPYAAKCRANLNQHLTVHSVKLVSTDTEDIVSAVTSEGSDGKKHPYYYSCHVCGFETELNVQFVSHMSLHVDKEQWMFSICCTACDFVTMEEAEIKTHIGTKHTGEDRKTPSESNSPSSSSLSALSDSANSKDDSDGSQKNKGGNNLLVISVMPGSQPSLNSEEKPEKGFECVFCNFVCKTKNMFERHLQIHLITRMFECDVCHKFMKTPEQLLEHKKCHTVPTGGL
As to conditions: purified recombinant protein, label: 32P.

Data set [2] addresses T2, ZNF827 full length (Homo sapiens) (UniProt Q17R98).
T2 sequence: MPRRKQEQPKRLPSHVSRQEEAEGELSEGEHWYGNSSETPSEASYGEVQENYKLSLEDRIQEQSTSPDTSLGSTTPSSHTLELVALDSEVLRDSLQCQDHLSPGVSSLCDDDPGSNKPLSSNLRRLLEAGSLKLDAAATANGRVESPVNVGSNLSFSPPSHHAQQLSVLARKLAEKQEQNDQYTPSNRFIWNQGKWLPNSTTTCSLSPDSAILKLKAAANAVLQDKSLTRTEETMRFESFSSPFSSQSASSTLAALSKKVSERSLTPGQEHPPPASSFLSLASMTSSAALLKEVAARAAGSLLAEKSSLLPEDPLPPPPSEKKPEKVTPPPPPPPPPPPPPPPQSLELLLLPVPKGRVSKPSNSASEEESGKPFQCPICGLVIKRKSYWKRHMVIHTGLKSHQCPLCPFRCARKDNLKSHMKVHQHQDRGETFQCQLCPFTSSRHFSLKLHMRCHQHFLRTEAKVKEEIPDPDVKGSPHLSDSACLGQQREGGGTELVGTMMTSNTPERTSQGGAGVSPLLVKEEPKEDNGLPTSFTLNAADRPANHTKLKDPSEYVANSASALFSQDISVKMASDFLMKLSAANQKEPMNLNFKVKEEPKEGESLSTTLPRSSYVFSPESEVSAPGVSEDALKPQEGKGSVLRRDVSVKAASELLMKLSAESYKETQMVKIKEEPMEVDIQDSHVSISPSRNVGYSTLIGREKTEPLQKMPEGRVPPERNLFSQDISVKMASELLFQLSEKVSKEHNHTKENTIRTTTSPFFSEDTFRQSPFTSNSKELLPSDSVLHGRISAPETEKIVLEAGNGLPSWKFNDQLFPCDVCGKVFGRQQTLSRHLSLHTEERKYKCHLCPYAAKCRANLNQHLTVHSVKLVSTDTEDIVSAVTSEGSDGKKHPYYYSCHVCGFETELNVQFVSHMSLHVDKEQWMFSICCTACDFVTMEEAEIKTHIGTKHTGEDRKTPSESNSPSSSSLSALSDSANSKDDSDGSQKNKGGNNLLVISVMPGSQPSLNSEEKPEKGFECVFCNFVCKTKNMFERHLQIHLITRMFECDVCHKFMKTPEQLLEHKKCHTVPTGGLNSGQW
As to conditions: purified recombinant protein, label: 32P.

For data set [3], the target named is T3, ZNF827 SUMOylation mutant (Homo sapiens) (UniProt Q17R98).
T3 sequence: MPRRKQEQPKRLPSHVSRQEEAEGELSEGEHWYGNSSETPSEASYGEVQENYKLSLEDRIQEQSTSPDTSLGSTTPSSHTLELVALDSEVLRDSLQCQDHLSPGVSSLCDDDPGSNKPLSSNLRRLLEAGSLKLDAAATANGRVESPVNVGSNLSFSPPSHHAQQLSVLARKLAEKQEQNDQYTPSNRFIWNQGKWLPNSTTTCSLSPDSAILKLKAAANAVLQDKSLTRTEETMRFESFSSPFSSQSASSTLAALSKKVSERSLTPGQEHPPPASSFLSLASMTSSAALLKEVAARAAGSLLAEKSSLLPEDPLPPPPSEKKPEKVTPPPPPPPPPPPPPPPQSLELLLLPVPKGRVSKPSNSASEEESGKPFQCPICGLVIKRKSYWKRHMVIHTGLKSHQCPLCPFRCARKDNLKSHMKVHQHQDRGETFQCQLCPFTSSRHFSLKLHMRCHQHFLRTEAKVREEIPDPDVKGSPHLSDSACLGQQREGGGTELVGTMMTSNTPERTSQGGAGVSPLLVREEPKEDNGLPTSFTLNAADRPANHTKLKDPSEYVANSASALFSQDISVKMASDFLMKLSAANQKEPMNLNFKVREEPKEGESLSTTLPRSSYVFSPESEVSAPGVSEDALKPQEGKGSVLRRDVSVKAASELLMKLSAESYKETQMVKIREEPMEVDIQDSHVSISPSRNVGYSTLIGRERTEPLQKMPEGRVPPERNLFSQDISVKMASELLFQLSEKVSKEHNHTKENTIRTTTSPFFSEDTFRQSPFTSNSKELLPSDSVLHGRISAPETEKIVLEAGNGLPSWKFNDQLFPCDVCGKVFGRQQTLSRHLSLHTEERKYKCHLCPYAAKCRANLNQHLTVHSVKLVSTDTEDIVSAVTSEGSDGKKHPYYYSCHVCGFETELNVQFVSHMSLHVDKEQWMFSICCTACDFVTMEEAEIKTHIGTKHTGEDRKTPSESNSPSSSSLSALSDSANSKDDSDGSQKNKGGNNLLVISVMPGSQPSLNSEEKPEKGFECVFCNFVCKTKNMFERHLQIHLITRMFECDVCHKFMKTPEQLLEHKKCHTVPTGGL
The note with it: any of the mutant proteins; purified recombinant protein; label: 32P.

A negative result means that nothing was seen under these conditions. Protein sequences can lack the tags named with them.

For the sequence “CGCTCTATTCTACTGTCCTGTGCATTCAATCGTTGAGTTCGATCTAGTCTCGTCTAACCCTCCCCTGCTCCGCTGGTCTGGCCTCGCCTATCCTACCCAT (double strand) [ds pentaprobe 3-9]”, the binding result in data set [1] (legend: ZNF827 and mutants display no binding to ds DNA) was “no binding”; in data set [2] (ds counterpart of pentaprobes), “no binding”.
Take “TTAGGGTTAGGGTTAGGG (double strand) [ds telomeric oligo]”: the binding result in data set [3], in data set [1] (any of the mutant proteins) and in data set [2] (ds probe treated with Exo VII) was “no binding” throughout.
